Test results: patent US20230405140A1, “ANTI-CD56 ANTIBODY-DRUG CONJUGATES AND THEIR USE IN THERAPY” (MCSAF INSIDE ONCOLOGY, priority 2020, published 2023)
Some of these results come from one statement about several compounds together.

System: primary NK cells
Assay: Killing effect on primary NK cells (Annexin V / 7-AAD flow cytometry)
Assay type: cell-based, human
Conditions: after 4 days of incubation
Experimental: Primary natural killer cells (NK) and monocytes were obtained from blood of healthy adult volunteers at the Etablissement Français du Sang, according to institutional research protection guidelines agreement N° CA-REC-2019-188, Centre Val de Loire, France. Ficoll density centrifugation step (Eurobio) was performed to isolate peripheral blood mononuclear cells (PBMC).
NK cells were isolated from PBMC by negative selection (NK cell isolation kit human, Miltenyi Biotec) with purity higher than 95%. NK cells were cultured for up to 36 h in RPMI 1640 supplemented with 10% FCS, 1% penicillin and streptomycin, 1% L-glutamine and 100 UI/mL IL-2 at 37° C., 5% CO2 at 1.10^6 cells/mL.

B1: LM-002: Deglycosylated Lorvotuzumab Mertansine: treated with PNGase F to remove the glycosylation (conjugate, chains of the INN, looked up)
VH: QVQLVESGGGVVQPGRSLRLSCAASGFTFSSFGMHWVRQAPGKGLEWVAYISSGSFTIYYADSVKGRFTISRDNSKNTLYLQMNSLRAEDTAVYYCARMRKGYAMDYWGQGTLVTVSS
VL: DVVMTQSPLSLPVTLGQPASISCRSSQIIIHSDGNTYLEWFQQRPGQSPRRLIYKVSNRFSGVPDRFSGSGSGTDFTLKISRVEAEDVGVYYCFQGSHVPHTFGQGTKVEIK
modifications: mertansine; deglycosylated
notes: Deglycosylated Lorvotuzumab Mertansine: treated with PNGase F to remove the glycosylation
Killing effect on primary NK cells: below 20%
